Assay results as given in the supplement of paper PMC10849652.
The other results are listed elsewhere or left out.

The chains behind the UniProt entries cited, without tags or fusion partners. Where a name states a change or a piece, a line headed by the entry shows the natural chain unless it says otherwise.
UniProt O14653: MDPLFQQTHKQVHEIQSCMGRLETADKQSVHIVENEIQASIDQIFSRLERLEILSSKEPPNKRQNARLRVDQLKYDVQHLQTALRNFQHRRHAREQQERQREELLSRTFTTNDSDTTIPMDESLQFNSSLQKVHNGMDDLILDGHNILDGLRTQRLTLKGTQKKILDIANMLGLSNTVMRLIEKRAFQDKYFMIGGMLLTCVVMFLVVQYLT
UniProt Q04760: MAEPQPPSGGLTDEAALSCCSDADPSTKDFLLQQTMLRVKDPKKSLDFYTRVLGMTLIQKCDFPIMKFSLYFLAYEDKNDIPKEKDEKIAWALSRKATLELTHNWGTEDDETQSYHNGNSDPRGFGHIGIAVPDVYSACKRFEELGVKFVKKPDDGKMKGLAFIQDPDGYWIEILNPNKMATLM
UniProt Q2TAP0: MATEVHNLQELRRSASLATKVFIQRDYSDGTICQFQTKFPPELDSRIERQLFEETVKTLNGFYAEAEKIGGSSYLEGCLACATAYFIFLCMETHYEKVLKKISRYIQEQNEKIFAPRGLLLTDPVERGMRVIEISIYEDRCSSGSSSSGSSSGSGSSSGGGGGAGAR
UniProt P28799: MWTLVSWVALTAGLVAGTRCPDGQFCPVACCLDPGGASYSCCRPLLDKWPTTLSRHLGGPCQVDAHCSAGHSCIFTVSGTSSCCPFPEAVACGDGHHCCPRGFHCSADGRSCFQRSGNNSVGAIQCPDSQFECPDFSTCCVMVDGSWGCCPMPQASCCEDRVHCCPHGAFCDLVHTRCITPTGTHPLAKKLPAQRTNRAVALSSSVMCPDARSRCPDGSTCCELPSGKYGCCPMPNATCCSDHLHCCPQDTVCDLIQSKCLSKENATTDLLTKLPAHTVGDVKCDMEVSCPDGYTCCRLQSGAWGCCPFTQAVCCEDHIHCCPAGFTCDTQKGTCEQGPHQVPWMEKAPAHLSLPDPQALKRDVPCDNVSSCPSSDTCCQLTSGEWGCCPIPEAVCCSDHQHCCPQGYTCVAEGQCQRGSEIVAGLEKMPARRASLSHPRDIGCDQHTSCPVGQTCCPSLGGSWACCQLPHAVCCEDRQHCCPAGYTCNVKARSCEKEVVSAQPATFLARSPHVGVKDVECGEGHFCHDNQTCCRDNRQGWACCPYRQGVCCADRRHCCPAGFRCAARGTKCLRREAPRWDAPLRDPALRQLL
UniProt P62879, whole entry, looked up: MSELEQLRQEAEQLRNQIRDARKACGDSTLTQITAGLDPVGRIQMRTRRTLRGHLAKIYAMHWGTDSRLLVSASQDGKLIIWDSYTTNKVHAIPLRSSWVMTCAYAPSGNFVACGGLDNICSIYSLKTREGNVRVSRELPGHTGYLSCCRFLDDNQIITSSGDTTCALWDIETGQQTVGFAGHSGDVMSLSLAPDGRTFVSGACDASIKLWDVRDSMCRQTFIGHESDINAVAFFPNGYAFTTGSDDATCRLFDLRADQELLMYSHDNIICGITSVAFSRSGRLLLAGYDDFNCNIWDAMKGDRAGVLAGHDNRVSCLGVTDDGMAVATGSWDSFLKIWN
UniProt O75791: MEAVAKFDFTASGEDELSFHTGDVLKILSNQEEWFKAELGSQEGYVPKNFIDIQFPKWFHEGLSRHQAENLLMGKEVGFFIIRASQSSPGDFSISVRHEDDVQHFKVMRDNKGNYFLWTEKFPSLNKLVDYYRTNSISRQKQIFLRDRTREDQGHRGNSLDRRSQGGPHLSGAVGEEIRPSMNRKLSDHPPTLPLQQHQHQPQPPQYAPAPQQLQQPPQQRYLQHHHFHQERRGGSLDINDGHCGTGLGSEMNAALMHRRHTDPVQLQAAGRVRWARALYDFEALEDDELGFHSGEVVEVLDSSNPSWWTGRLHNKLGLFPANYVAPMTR
UniProt Q4V328: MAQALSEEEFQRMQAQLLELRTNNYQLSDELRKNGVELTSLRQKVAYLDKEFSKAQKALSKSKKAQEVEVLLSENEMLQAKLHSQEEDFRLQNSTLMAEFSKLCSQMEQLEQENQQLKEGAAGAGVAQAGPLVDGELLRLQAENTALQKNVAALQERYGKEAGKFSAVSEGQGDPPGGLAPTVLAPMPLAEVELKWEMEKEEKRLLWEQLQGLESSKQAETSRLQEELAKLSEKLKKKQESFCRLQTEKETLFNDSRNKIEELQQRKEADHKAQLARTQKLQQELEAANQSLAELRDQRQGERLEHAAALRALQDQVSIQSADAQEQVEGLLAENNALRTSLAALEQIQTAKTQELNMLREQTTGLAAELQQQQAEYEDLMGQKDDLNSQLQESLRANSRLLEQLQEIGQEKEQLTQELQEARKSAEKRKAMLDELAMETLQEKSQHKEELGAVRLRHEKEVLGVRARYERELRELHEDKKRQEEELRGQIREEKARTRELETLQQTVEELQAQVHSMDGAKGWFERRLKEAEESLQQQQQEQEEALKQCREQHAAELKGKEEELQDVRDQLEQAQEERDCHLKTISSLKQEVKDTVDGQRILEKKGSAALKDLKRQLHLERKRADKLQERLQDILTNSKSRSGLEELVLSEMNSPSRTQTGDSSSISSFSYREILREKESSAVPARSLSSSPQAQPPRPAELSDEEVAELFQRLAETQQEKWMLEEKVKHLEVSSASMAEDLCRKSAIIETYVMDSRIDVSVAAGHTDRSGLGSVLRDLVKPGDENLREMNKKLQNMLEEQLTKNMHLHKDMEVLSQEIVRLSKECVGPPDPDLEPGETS
UniProt Q86SX6: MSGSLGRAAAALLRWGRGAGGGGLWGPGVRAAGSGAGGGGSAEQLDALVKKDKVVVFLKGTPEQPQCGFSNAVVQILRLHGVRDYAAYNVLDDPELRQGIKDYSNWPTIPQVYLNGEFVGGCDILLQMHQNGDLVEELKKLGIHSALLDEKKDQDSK
UniProt Q9Y248: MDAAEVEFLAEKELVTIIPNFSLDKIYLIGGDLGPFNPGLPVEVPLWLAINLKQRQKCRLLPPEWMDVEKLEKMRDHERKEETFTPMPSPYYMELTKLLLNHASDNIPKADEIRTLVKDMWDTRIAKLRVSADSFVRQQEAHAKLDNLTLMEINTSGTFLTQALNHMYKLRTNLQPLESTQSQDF
UniProt O43292: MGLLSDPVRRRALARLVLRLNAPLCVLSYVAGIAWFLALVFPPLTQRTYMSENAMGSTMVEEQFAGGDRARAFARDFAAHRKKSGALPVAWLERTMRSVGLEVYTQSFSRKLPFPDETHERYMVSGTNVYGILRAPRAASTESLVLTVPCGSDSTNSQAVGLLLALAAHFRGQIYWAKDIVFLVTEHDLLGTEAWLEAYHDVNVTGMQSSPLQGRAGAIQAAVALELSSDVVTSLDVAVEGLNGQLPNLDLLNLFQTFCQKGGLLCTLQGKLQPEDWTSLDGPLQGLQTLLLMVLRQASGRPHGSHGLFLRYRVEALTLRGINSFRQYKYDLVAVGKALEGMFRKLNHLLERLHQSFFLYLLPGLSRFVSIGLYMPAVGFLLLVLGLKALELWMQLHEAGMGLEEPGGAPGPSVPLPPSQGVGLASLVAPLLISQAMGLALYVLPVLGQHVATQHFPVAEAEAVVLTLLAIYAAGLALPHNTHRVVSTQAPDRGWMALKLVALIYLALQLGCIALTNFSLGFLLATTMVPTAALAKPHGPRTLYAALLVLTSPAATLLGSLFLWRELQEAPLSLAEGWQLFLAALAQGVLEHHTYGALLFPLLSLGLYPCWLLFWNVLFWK
UniProt Q92990: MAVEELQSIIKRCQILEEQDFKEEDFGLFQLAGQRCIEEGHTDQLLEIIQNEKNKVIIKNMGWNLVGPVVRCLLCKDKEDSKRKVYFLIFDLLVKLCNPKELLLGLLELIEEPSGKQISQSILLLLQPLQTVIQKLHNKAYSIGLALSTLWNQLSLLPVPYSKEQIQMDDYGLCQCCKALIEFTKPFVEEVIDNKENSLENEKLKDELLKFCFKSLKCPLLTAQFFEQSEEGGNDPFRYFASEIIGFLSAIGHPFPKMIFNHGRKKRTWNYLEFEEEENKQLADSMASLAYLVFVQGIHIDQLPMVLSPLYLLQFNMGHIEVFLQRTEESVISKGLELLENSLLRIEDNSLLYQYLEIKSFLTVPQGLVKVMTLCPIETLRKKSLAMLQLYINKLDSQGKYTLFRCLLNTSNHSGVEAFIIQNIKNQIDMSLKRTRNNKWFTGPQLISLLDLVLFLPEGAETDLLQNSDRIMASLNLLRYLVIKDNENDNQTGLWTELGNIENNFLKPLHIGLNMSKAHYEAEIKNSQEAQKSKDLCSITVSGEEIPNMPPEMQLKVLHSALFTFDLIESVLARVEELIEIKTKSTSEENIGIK
UniProt Q8IXQ4: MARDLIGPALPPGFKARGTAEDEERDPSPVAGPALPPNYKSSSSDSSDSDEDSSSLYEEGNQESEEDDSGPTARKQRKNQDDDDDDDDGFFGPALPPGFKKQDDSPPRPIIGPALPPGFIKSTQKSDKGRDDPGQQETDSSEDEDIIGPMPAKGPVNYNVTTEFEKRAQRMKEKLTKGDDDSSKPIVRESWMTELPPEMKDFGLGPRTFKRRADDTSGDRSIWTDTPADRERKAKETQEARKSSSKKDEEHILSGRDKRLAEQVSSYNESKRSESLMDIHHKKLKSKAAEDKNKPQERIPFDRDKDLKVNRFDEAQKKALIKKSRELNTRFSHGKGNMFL
UniProt Q9NPR9: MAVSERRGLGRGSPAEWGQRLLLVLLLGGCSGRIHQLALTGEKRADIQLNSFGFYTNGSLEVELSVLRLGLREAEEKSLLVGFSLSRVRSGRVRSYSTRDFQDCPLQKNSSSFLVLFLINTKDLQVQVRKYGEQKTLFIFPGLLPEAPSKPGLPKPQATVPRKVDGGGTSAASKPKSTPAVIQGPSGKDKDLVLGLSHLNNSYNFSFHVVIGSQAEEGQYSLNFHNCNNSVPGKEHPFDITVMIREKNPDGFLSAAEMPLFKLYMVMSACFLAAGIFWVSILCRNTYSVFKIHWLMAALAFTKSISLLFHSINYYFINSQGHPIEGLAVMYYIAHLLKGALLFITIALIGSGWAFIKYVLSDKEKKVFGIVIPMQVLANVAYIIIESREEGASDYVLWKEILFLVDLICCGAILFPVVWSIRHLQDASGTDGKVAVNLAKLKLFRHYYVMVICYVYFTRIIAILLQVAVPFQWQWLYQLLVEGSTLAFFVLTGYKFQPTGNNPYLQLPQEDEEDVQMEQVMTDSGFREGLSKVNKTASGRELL
UniProt Q9Y3E0: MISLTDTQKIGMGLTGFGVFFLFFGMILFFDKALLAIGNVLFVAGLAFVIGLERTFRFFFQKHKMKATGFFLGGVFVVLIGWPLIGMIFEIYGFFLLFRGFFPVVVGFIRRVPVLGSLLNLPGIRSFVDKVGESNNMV
UniProt P63218: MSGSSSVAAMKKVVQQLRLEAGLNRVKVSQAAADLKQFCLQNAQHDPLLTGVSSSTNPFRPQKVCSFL
UniProt P22352, whole entry, looked up: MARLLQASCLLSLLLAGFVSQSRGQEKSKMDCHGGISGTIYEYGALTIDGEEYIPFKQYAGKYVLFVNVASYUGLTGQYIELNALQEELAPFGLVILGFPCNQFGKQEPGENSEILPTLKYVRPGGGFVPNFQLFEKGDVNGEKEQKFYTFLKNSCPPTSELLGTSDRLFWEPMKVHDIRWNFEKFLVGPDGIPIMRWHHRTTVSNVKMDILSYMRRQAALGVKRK
UniProt I6L899: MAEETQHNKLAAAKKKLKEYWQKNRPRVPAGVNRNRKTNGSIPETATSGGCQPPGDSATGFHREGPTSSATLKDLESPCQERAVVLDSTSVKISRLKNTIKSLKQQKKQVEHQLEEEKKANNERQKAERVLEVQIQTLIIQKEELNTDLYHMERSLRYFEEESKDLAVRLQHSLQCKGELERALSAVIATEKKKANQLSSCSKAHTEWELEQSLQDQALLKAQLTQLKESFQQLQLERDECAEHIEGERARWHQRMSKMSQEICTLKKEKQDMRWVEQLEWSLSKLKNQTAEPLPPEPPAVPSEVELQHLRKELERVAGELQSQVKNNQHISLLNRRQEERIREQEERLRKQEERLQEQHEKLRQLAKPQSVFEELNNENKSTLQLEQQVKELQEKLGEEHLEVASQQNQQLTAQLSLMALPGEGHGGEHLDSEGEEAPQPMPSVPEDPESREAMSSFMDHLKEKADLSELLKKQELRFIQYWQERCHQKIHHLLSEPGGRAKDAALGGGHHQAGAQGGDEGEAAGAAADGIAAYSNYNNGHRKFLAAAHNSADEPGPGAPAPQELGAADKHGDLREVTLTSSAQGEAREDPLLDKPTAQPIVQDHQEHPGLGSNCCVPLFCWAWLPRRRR
UniProt P06280: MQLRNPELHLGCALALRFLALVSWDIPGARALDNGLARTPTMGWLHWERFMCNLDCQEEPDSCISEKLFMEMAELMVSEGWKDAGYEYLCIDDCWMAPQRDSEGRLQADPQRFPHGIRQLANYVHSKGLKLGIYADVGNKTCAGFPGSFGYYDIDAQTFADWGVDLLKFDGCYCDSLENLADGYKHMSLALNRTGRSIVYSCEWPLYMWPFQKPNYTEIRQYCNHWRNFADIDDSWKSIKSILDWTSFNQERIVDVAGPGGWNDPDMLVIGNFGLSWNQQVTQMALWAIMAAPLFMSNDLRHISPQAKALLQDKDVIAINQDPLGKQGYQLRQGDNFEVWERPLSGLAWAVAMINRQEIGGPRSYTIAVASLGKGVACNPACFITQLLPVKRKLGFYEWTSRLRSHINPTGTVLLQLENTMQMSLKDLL

Tests used:
Assay in all cases: log2 fold change, soluble protein after heating vs DMSO (PISA); higher = thermal stabilisation; K562 cells, 10 uM, 30 min; active = over 0.2 and 3.5 SD of the protein, either way, in both replicates (recomputed)
[1] = compound: C1=CC=C(C=C1)[C@H](COC2=CC3=C(C=C2)NC(=O)N3)NC(=O)C4=CC=CN(C4=O)CC5=CC(=C(C=C5)F)F
Outline: (§1)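 For each measurement, 10 μM compound was applied for 30 min to K562 cells at 2×10^6 cells/mL. Aliquots were heated for 3 min across 48°C-58°C, pooled, and extracted in PBS with 0.5% NP-40 at 4°C; the supernatant after 21,000xg for 90 min was soluble protein. This was quantified by TMTpro 16plex LC-MS/MS with channel sums equalised, and thermal stability was reported relative to control samples from duplicates, on a log2 fold-change scale.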

[2] = compound: CC1=C(SC2=C1C(=N[C@H](C3=NN=C(N32)C)CC(=O)N)C4=CC=C(C=C4)Cl)C
Outline: as §1

[3] = compound: CC1=C2C(=CC=C1)N=C(N(C2=O)C3=CC=CC=C3C)CN4C=NC5=C(N=CN=C54)N
Outline: as §1

[4] = compound: Cc1sc2c(c1C)C(c1ccc(Cl)cc1)=N[C@@H](CC(=O)OC(C)(C)C)c1nnc(C)n1-2
Outline: as §1

[5] = compound: c1ccc([C@@H]2C[C@H]2NC2CCNCC2)cc1
Outline: as §1

Measured: log2 fold change

GNAQ (UniProt P50148)
inactive: [1] 0 | [2] 0.035 | [3] 0.156 | [4] -0.01 | [5] 0.024

GON7 (UniProt Q9BXV9)
inactive: [1] -0.066 | [2] -0.006 | [3] -0.035 | [4] -0.32 | [5] 0.059

GP1BB isoform 2 (UniProt P13224)
inactive: [1] -0.012 | [2] -0.03 | [3] 0.042 | [4] 0.011 | [5] 0.051

GOSR2 isoform 2 (UniProt O14653)
inactive: [1] -0.072 | [2] 0.036 | [3] 0.026 | [4] -0.082 | [5] -0.099

GPD2 (UniProt P43304)
inactive: [1] 0.022 | [2] 0.005 | [3] 0.012 | [4] 0.003 | [5] 0.025

GOLGB1 isoform 2 (UniProt Q14789)
inactive: [1] 0.045 | [2] -0.024 | [3] 0.018 | [4] 0.013 | [5] 0.045

GLO1 (UniProt Q04760)
inactive: [1] -0.031 | [2] -0.011 | [3] 0.009 | [4] -0.008 | [5] 0.027

GOLIM4 (UniProt F8W785)
inactive: [1] 0.038 | [2] -0.111 | [3] -0.036 | [4] 0.014 | [5] 0.049

GNA12 (UniProt Q03113)
inactive: [1] -0.082 | [2] 0.068 | [3] 0.097 | [4] 0.116 | [5] 0.063

GPX4 (UniProt P36969)
inactive: [1] 0.029 | [2] 0.001 | [3] 0.017 | [4] -0.064 | [5] 0.028

GOLGA7B (UniProt Q2TAP0)
inactive: [1] -0.031 | [2] 0.085 | [3] 0.1 | [4] -0.013 | [5] 0.037

GRN (UniProt P28799)
inactive: [1] -0.075 | [2] 0.021 | [3] -0.019 | [4] -0.008 | [5] 0.078

GNPTAB (UniProt Q3T906)
inactive: [1] -0.058 | [2] -0.113 | [3] 0.153 | [4] 0.134 | [5] -0.036

GRPEL1 (UniProt Q9HAV7)
inactive: [1] -0.018 | [2] 0.035 | [3] 0.085 | [4] -0.024 | [5] -0.017

GPR89A (UniProt B7ZAQ6)
inactive: [1] 0.003 | [2] 0.086 | [3] 0.028 | [4] -0.066 | [5] 0.053

GOLGA7 (UniProt Q7Z5G4)
inactive: [1] 0.054 | [2] 0.082 | [3] 0.076 | [4] -0.05 | [5] 0.052

GNB2 (UniProt P62879)
inactive: [1] 0.025 | [2] 0.045 | [3] 0.029 | [4] -0.09 | [5] -0.015

GMPPB isoform 2 (UniProt Q9Y5P6)
inactive: [1] 0.024 | [2] 0.049 | [3] -0.038 | [4] -0.017 | [5] 0.037

GRAP2 (UniProt O75791)
inactive: [1] -0.118 | [2] 0.183 | [3] 0.105 | [4] 0 | [5] -0.191

GRIPAP1 (UniProt Q4V328)
inactive: [1] 0.006 | [2] -0.044 | [3] -0.01 | [4] 0.043 | [5] 0.05

GLRX5 (UniProt Q86SX6)
inactive: [1] 0.093 | [2] 0.217 | [3] 0.205 | [4] -0.072 | [5] 0.033

GNE isoform 2 (UniProt Q9Y223)
inactive: [1] -0.085 | [2] 0.1 | [3] 0.019 | [4] -0.003 | [5] -0.034

GPAT3 (UniProt Q53EU6)
inactive: [1] 0.086 | [2] -0.084 | [3] 0.036 | [4] -0.092 | [5] 0.019

GLYR1 (UniProt Q49A26)
inactive: [1] 0.147 | [2] 0.054 | [3] -0.016 | [4] 0.058 | [5] 0.067

GINS1 (UniProt Q14691)
inactive: [1] -0.049 | [2] 0.029 | [3] -0.016 | [4] -0.029 | [5] -0.107

GPR180 (UniProt Q86V85)
inactive: [1] 0 | [2] -0.006 | [3] -0.013 | [4] -0.113 | [5] -0.049

GOLM1 (UniProt Q8NBJ4)
inactive: [1] -0.175 | [2] 0.002 | [3] 0.221 | [4] -0.215 | [5] -0.021

GNPDA1 (UniProt P46926)
inactive: [1] 0.021 | [2] 0.016 | [3] 0.016 | [4] -0.006 | [5] 0.055

GMPR (UniProt P36959)
inactive: [1] 0.027 | [2] 0.043 | [3] -0.022 | [4] -0.017 | [5] 0

GINS2 (UniProt Q9Y248)
inactive: [1] -0.011 | [2] 0.102 | [3] 0.115 | [4] -0.033 | [5] -0.026

GK (UniProt P32189)
inactive: [1] 0.032 | [2] 0.026 | [3] 0.013 | [4] -0.013 | [5] 0.001

GPAA1 (UniProt O43292)
inactive: [1] -0.021 | [2] 0.005 | [3] 0.01 | [4] -0.03 | [5] -0.05

GNB4 (UniProt Q9HAV0)
inactive: [1] 0.001 | [2] -0.026 | [3] -0.062 | [4] -0.011 | [5] 0.047

GNL3 (UniProt Q9BVP2)
inactive: [1] 0.101 | [2] 0.112 | [3] 0.164 | [4] -0.131 | [5] -0.053

GLS isoform 3 (UniProt O94925)
inactive: [1] -0.077 | [2] 0.204 | [3] 0.024 | [4] -0.168 | [5] 0.067

GNAI3 (UniProt P08754)
inactive: [1] -0.005 | [2] 0.019 | [3] 0.011 | [4] -0.154 | [5] -0.032

GLMN (UniProt Q92990)
inactive: [1] -0.048 | [2] 0.057 | [3] -0.003 | [4] -0.01 | [5] 0.006

GPALPP1 (UniProt Q8IXQ4)
inactive: [1] 0.031 | [2] 0.096 | [3] 0.074 | [4] 0.02 | [5] 0.024

GPR108 (UniProt Q9NPR9)
inactive: [1] 0.061 | [2] 0.021 | [3] 0.083 | [4] -0.052 | [5] -0.043

GOLT1B (UniProt Q9Y3E0)
inactive: [1] -0.003 | [2] -0.001 | [3] 0.044 | [4] -0.052 | [5] 0.03

GNG5 (UniProt P63218)
inactive: [1] 0.044 | [2] 0.063 | [3] 0.012 | [4] -0.064 | [5] 0.018

GRB2 (UniProt P62993)
inactive: [1] -0.042 | [2] 0.04 | [3] 0.019 | [4] -0.004 | [5] 0.004

Random excerpt: two records from the list
GOLT1B (UniProt Q9Y3E0)
inactive: [1] -0.003 | [2] -0.001 | [3] 0.044 | [4] -0.052 | [5] 0.03

GRB2 (UniProt P62993)
inactive: [1] -0.042 | [2] 0.04 | [3] 0.019 | [4] -0.004 | [5] 0.004

Further entries:

GPHN isoform 2 (UniProt Q9NQX3)
inactive: [1] 0.009 | [2] 0.04 | [3] 0.02 | [4] 0 | [5] 0.026

GPN1 isoform 5 (UniProt Q9HCN4)
inactive: [1] 0.033 | [2] -0.041 | [3] 0.062 | [4] -0.087 | [5] 0.019

GPX3 (UniProt P22352)
inactive: [1] -0.078 | [2] 0.041 | [3] 0.184 | [4] 0.083 | [5] -0.122

GPATCH11 (UniProt Q8N954)
inactive: [1] 0.016 | [2] 0.012 | [3] -0.013 | [4] -0.004 | [5] 0.026

GMFB (UniProt P60983)
inactive: [1] 0.007 | [2] 0.057 | [3] 0.014 | [4] -0.013 | [5] -0.034

GM2A (UniProt P17900)
inactive: [1] 0.05 | [2] 0.01 | [3] 0.134 | [4] -0.042 | [5] -0.007

GOLGA8R (UniProt I6L899)
inactive: [1] 0.106 | [2] 0.211 | [3] 0.326 | [4] 0.043 | [5] -0.003

GLA (UniProt P06280)
inactive: [1] 0.019 | [2] -0.019 | [3] -0.01 | [4] 0.007 | [5] 0.017

GMEB1 (UniProt Q9Y692)
inactive: [1] 0.02 | [2] 0.084 | [3] -0.007 | [4] 0.024 | [5] 0.022

GNMT (UniProt Q14749)
inactive: [1] -0.315 | [2] -0.116 | [3] 0.283 | [4] 0.019 | [5] -0.259

GOPC (UniProt Q9HD26)
inactive: [1] -0.315 | [2] -0.016 | [3] 0.018 | [4] 0.169 | [5] -0.054
